Laboratory results published in patent US20260124194A1 (priority 2022, published 2026).

Tested on: Rb1 cKO retinoblastoma mice

CC(C)n1c(=O)c(C(=O)N[C@H]2C[C@H]3CC[C@@H](C2)N3C[C@@H](O)CN(C)S(C)(=O)=O)cc2ccccc21 [velusetrag, 1-isopropyl-2-oxo-1,2-dihydroquinoline-3-carboxylic acid {(1S,3R,5R)-8-[(R)-2-hydroxy-3-(methanesulfonyl-methyl-amino)propyl]-8-azabicyclo[3.2.1]oct-3-yl}amide]
knock out mice that died (Rb1 cKO mice, 1 or 3 mg/kg ip, control group 40% died within 15 days after start of treatment): 10%
Lethality (mouse, in vivo, ip): 1/10
